From PubChem BioAssay AID493014 (National Center for Advancing Translational Sciences (NCATS), 2011) come the findings set out here.

The other results are listed elsewhere or left out. Shown are side measurements of this screen, not its main read-out; they come without a call. Compounds called inactive in the main read-out are mostly missing here. Words in brackets tell the shape of the fitted curve; partial curves, single points and poor fits give uncertain potencies.

The test in a line: qHTS Assay to Find Inhibitors of Chronic Active B-Cell Receptor Signaling. As to conditions: ABC-DLBCL IkBa-CBG/CBR reporter, luminescence ratio (green luciferase fused to IkBa over red control in TMD8 lymphoma cells), 4 h. In outline: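 TMD8 human ABC-DLBCL cells with doxycycline-inducible IκBα–green luciferase fusion and unfused red luciferase, in 0.5% FBS medium; compounds up to 46 uM, 4 h at 37C. Green/red luminescence ratio, filter-overlap corrected, fitted to concentration-response curves.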

Setting [1] is: measured here: CBR red luminescence, cell number.

Turning to `COc1cccc(-c2cc3c(=O)n(-c4ccccc4)c(=S)[nH]c3s2)c1`, under setting [1], the AC50 is 3.98 µM [rising, full curve, poor fit]. Regarding `Cc1ccc(S(=O)(=O)Nc2ccc3oc(=O)sc3c2)c(C)c1`, the AC50 under setting [1] is 0.164 µM [falling, full curve, poor fit]. Consider `COc1ccc(NC(=O)c2ccc([N+](=O)[O-])s2)c([N+](=O)[O-])c1`, for which the AC50 under setting [1] is 1 µM [rising, full curve, poor fit].

As to `N#Cc1c(Cl)nc(SCc2ccccc2)nc1-c1ccccc1`, under setting [1], the AC50 was 11.2 µM [falling, single point]. For the molecule `CNC(=O)COc1ncnc2sccc12`, the half-maximal activity concentration (AC50) under setting [1] is 6.51 µM [rising, single point]. The same measure, in the same setting: the same measure for `O=C(Nc1cccc(/C=C/c2ccccn2)c1)c1ccc(-n2cncn2)c([N+](=O)[O-])c1`: 2.06 µM [falling, single point]; for `O=C(COC(=O)C1CC2C=CC1C2)NCc1ccccc1Cl` (configuration not stated): 13 µM [falling, partial curve, poor fit]; for `COc1ccc(CN2CCCC(CO)(Cc3ccc(F)cc3)C2)cc1C` (configuration not stated): 35.5 µM [falling, single point]. Still for that read-out and setting: the same measure for `Cc1onc(-c2ccccc2)c1C(=O)N/N=C/c1cccs1`: 5.62 µM [rising, single point]; for `CCN(CC(=O)Nc1ccc(C)c(S(=O)(=O)N(C)C)c1)Cc1ccccc1`: 11.2 µM [rising, partial curve, poor fit]; for `Cc1ccc(-n2cnc(N)c2C(=O)c2cccc([N+](=O)[O-])c2)cc1`: 35.5 µM [falling, single point].

For the molecule `COc1ccc(NC(=O)c2oc3ccc(S(=O)(=O)N4CCC5(CC4)OCCO5)cc3c2C)cc1`, under setting [1], the concentration at half-maximal activity (AC50) was 18.4 µM [falling, single point]. Consider `Cc1cc(C)cc(C(=O)OCC(=O)Nc2cccc(S(=O)(=O)NC3=NCCCCC3)c2)c1`, for which, under setting [1], the AC50 was 16.4 µM [falling, single point]. For the molecule `CC(=O)c1ccc(NC(=S)N2CCN(CCN3C(=O)c4cccc5cccc(c45)C3=O)CC2)cc1`, the AC50 under setting [1] was 2.06 µM [falling, partial curve].

As to `COc1ccccc1C(=O)NNC(=O)c1ccc(C)cc1`, the AC50 under setting [1] is 11.2 µM [falling, partial curve].

For the molecule `O=C(Nc1ccc2[nH]ncc2c1)c1ccccc1`, the concentration at half-maximal activity (AC50) under setting [1] is 14.1 µM [falling, partial curve, poor fit]. Turning to `CCCCOC(=O)Nc1cccc(Cl)c1C`, the AC50 under setting [1] is 29.1 µM [falling, single point]. Take `Cc1ccc2ccc(C(Nc3cccc(C(F)(F)F)c3)c3cccnc3)c(O)c2n1` (configuration not stated): under setting [1], the AC50 is 14.1 µM [falling, single point].

For the molecule `Cc1[nH]nc(S(=O)CC(=O)O)c1[N+](=O)[O-]` (configuration not stated), the concentration at half-maximal activity (AC50) under setting [1] is 11.2 µM [falling, partial curve]. For the molecule `COC(=O)Cc1ccc(NC(=S)N2CCN(c3cccc(O)c3)CC2)cc1`, the half-maximal activity concentration (AC50) under setting [1] was 6.51 µM [falling, partial curve]. For `O=[N+]([O-])c1cccc(-c2nc(-c3ccccc3)no2)c1`, the concentration at half-maximal activity (AC50) under setting [1] is 1.78 µM [rising, partial curve, poor fit]. Same read-out and setting: in the case of `Cn1c(=O)n(C)c2cc(S(=O)(=O)Nc3cc(Cl)ccc3O)ccc21` it was 17.8 µM [rising, partial curve, poor fit]. Consider `O=C(Nc1nccs1)c1ccc(-c2ccc(Cl)cc2)o1`, for which the concentration at half-maximal activity (AC50) under setting [1] was 10 µM [falling, partial curve, poor fit]. Regarding `O=C(NCc1cc(Br)cc(Br)c1OC(=O)c1ccccc1[N+](=O)[O-])c1ccccc1`, under setting [1], the half-maximal activity concentration (AC50) was 3.26 µM [falling, partial curve]. Consider `O=C(O)/C=C\C(=O)Nc1ccccc1C#Cc1ccc(Br)cc1`, for which the AC50 under setting [1] was 25.9 µM [falling, single point]. On the same count and under the same terms, in the case of `O=C(Nc1ccc(Nc2ccccc2)cc1)c1cc([N+](=O)[O-])ccc1Cl` it was 10 µM [falling, partial curve]; in that of `CCS(=O)(=O)Nc1ccc(C2=NN(C(=O)c3ccco3)C(c3ccco3)C2)cc1` (configuration not stated), 9.2 µM [falling, partial curve, poor fit].

For `NNc1nc2c(Cl)c(Cl)ccc2s1`, the concentration at half-maximal activity (AC50) under setting [1] was 10.3 µM [falling, partial curve]. `COc1nc(NCc2ccco2)nc(N2CCC(C)CC2)n1`: under setting [1], the half-maximal activity concentration (AC50) is 10 µM [rising, partial curve].

On to `COc1ccc(C(=O)NCCc2ccccc2)cc1OC`, for which the concentration at half-maximal activity (AC50) under setting [1] was 11.2 µM [falling, single point]. For the molecule `Cc1ccc2cc(C)c3nnc(SCC(=O)c4cccs4)n3c2c1C`, the half-maximal activity concentration (AC50) under setting [1] is 18.4 µM [rising, partial curve, poor fit]. For the molecule `COc1ccc(-n2cc(-c3ccccc3)c3c(N4CCN(CCO)CC4)ncnc32)cc1`, the AC50 under setting [1] is 14.6 µM [falling, single point]. For `O=C(NC(=S)Nc1cccc(O)c1)c1ccco1`, the concentration at half-maximal activity (AC50) under setting [1] is 10 µM [falling, partial curve, poor fit]. In the case of `COC(=O)c1ccsc1NC(=O)CCS(=O)(=O)c1ccc(Cl)cc1`, under setting [1], the concentration at half-maximal activity (AC50) is 29.1 µM [falling, single point]. Same read-out and setting: the same measure for `O=C(COc1ccc(/C=N/NC(=O)c2cccnc2)cc1)Nc1ccccc1`: 20 µM [falling, partial curve]. For the molecule `Cc1nc(N2N=C(c3ccc(Cl)cc3)CC2c2ccco2)sc1C(=O)N(C)C` (configuration not stated), where the note is “measured here: IkBa-CBG green luminescence”, the half-maximal activity concentration (AC50) is 10 µM [falling, partial curve, poor fit].

`O=C(Nc1ccc(Br)cc1)c1csc(-c2ccncc2)n1`: the concentration at half-maximal activity (AC50) under setting [1] is 22.4 µM [falling, single point].

As to `CSc1nsc(N/N=C/c2ccc3c(c2)OCO3)c1C#N`, the AC50 under setting [1] is 0.0891 µM [rising, full curve, poor fit]. Take `COc1cc(CNc2ccc3[nH]c(=O)[nH]c3c2)ccc1OCc1ccc(F)cc1Cl`: under setting [1], the AC50 was 6.31 µM [falling, single point].

For the molecule `COc1ccc(OC)c(S(=O)(=O)N2CCCCC2C(=O)N2CCN(c3ccccn3)CC2)c1` (configuration not stated), the concentration at half-maximal activity (AC50) under setting [1] was 18.4 µM [rising, partial curve]. Consider `Cc1cccc(C)c1OCC(=O)Nc1ccccc1N1CCCCC1`, for which, under setting [1], the AC50 is 17.8 µM [rising, partial curve].

Take `O=C(c1ccc2c(c1)OCCO2)C1CCN(C(=O)Nc2ccc(F)cc2)CC1`: under setting [1], the AC50 is 2.51 µM [rising, partial curve, poor fit]. Consider `Nc1nnc(CC(=O)N2CCCCC2)s1`, for which, under setting [1], the AC50 is 29.1 µM [rising, single point].

Regarding `Cc1cc(C)cc(NS(=O)(=O)c2ccc3[nH]c(=O)[nH]c3c2)c1`, the half-maximal activity concentration (AC50) under setting [1] was 4.11 µM [falling, single point]. On the same count and under the same terms, in the case of `Cc1cc(C(=O)NNC(=S)Nc2ccccc2C)cs1` it was 2.06 µM [falling, partial curve]; in that of `COC(=O)C1=C(C)N(c2ccccc2)/C(=C/c2cccs2)C1=O`, 35.5 µM [rising, single point]; in that of `CCOC(=O)/C=C/C(=O)OCC(=O)Nc1cccc(Br)c1`, 28.2 µM [rising, single point]. Turning to `Cc1noc(C)c1COc1cccc(C(=O)Oc2ccc3c(c2)OCO3)c1`, the half-maximal activity concentration (AC50) under setting [1] was 7.31 µM [rising, partial curve, poor fit]. Consider `CS(=O)(=O)NCCCNc1c(Cl)cccc1[N+](=O)[O-]`, for which the AC50 under setting [1] was 23.1 µM [rising, single point]. As for `CN1CCN(c2nc(C#N)cc(-c3ccccc3)n2)CC1`, the AC50 under setting [1] was 2.24 µM [rising, partial curve, poor fit]. Consider `N/C(=N\OC(=O)COc1ccc(Cl)cc1)c1cccnc1`, for which, under setting [1], the AC50 is 0.58 µM [rising, full curve]. On the same count and under the same terms, the same measure for `CCOC(=O)C1CCN(Cc2ccc(Cl)c(Cl)c2)CC1`: 13 µM [rising, partial curve, poor fit]; for `Cc1cc2nc(SC(C)C(=O)O)[nH]c2cc1C` (configuration not stated): 12.6 µM [rising, single point]; for `O=S(=O)(Nc1nc(-c2ccccc2)cs1)c1cc(Cl)ccc1Cl`: 35.5 µM [rising, single point].

For the molecule `O=C(Nc1ccccc1Cl)ON=C1c2ccccc2-c2ccccc21`, the AC50 under setting [1] was 39.8 µM [falling, partial curve, poor fit].

In the case of `Nc1nc(SCC(=O)Nc2cccc(S(=O)(=O)N3CCCCCC3)c2)n[nH]1`, the half-maximal activity concentration (AC50) under setting [1] was 35.5 µM [falling, single point].

With `CCc1ccc(C(=O)CN2CCSC2=N)cc1`, under setting [1], the AC50 is 4.61 µM [rising, single point]. As to `COC(=O)c1ccc(Sc2ccccc2NS(=O)(=O)c2ccc(NC(C)=O)cc2)nc1`, the half-maximal activity concentration (AC50) under setting [1] was 29.1 µM [falling, partial curve, poor fit]. On to `CC(=O)Nc1nc2cc(N)ccc2s1`, for which, under setting [1], the AC50 was 18.4 µM [rising, single point]. Turning to `CC(C)Oc1ccc(OCCn2c(S(=O)(=O)O)nc3c(N)ncnc32)cc1`, the concentration at half-maximal activity (AC50) under setting [1] is 3.98 µM [falling, single point]. On to `COc1cc2cnc(-c3ccccc3)c(-c3cc(OC)c(OC)c(OC)c3)c2cc1OC`, for which the AC50 under setting [1] is 29.1 µM [falling, single point]. `O=C(O)c1cccc(NC(=O)C2CCCO2)c1` (configuration not stated): the AC50 under setting [1] was 5.17 µM [falling, single point].

Take `CC(C)C(=O)Nc1cccc(C(=O)Nc2nnc(C(C)(C)C)s2)c1`: the concentration at half-maximal activity (AC50) under setting [1] is 3.98 µM [rising, partial curve, poor fit]. For `COC(=O)Nc1sc2c(c1C(=O)NCc1ccco1)CCCC2`, the AC50 under setting [1] was 17.8 µM [falling, partial curve, poor fit]. Turning to `O=C(Cc1ccccc1)NC(=S)Nc1ccc2oc(-c3ccccc3)nc2c1`, under setting [1], the half-maximal activity concentration (AC50) is 0.092 µM [rising, full curve, poor fit].

`CCn1c(SCC(=O)NCc2ccco2)nnc1-c1ccc(N)cc1`: the AC50 under setting [1] is 35.5 µM [rising, single point]. Regarding `NC(=O)N/N=C/c1ccc(-c2ccc([N+](=O)[O-])cc2)o1`, the AC50 under setting [1] is 35.5 µM [rising, single point].
